# Binding screen against folded nucleic acids

From ROBIN, a set of small-molecule microarray screens (doi:10.1002/anie.202211358).

Targets, with sequences 5′ to 3′:
PreQ1: PreQ1 riboswitch RNA pseudoknot, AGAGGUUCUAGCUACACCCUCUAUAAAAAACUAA. From B. subtilis. Hit rate about 0.7% of about 24,000 compounds.
TPP: TPP riboswitch RNA three-way junction, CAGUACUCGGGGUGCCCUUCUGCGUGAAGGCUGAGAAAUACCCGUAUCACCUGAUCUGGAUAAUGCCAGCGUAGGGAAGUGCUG. Hit rate about 0.7% of about 24,000 compounds.
SAM-II: SAM-II riboswitch RNA pseudoknot, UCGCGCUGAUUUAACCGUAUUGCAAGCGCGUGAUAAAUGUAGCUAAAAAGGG. Hit rate about 1% of about 21,000 compounds.

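Each compound is printed as two spots on a slide made to bind it covalently, so it has no test concentration; the read-out is fluorescence of the bound, labelled oligonucleotide. For the PreQ1, TPP and SAM-II riboswitches the laboratory earlier reported (doi:10.1038/s41467-019-09493-3) 1 µM RNA, 2 h, and a rule that included a mean Z-score above 3 (spot signal-to-noise against the whole library), a score well above that on a control array, and duplicate spots agreeing (coefficient of variation under 100). The data file gives only the calls; its cut-offs may differ, and compounds hitting several targets are kept. These are primary screening calls, not affinities; a compound without a hit may have attached poorly or may still bind in solution.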
“active” means called a hit, “inactive” means screened and not called a hit.
Compounds were drawn at random from those tested, without regard to their results.
A target missing from an entry has no call listed here.

With COc1cc(C(=O)OC(C)CN2CCOCC2)cc(OC)c1OC (configuration not stated) the screen gave PreQ1: inactive; TPP: inactive; SAM-II: inactive.
With COc1cc(OC)c(C2C(C#N)=C(N)Oc3[nH]nc(C(C)(C)C)c32)cc1OC (configuration not stated) the screen gave PreQ1: inactive; TPP: inactive; SAM-II: inactive.
With CCS(=O)(=O)N1CCN(c2nccc(N3CCC(O)C3)n2)CC1 (configuration not stated) the screen gave PreQ1: inactive; TPP: inactive; SAM-II: inactive.
With OC(CN=Cc1ccc(Cl)cc1)c1ccccc1 (configuration not stated) the screen gave PreQ1: inactive; TPP: inactive; SAM-II: inactive.
With Cc1nc(CCn2cnc3sc4c(c3c2=O)CCNC4)nc2c1CCCC2 the screen gave PreQ1: inactive; TPP: inactive; SAM-II: inactive.
With COc1ccc(C2C(C#N)=C(N)Oc3cc4c(cc32)OCO4)cc1Br (configuration not stated) the screen gave PreQ1: inactive; TPP: inactive; SAM-II: inactive.
With Cc1ccc(-c2cccc(C(=O)N3[C@H]4CCNC[C@@H]3CC4)c2)o1 the screen gave PreQ1: inactive; TPP: inactive; SAM-II: inactive.
With c1ccc2sc(CCCNC3CCOC4(CCOCC4)C3)nc2c1 (configuration not stated) the screen gave PreQ1: inactive; TPP: inactive; SAM-II: inactive.
With CCN(CC)c1ccc(Nc2nc(-c3sc(C)nc3C)cs2)cc1 the screen gave PreQ1: inactive; TPP: inactive; SAM-II: inactive.
With Cc1cccc2nc(-c3ccco3)c(Nc3ccc4c(c3)OCCO4)n12 the screen gave PreQ1: inactive; TPP: inactive; SAM-II: inactive.
With CN(CC(=O)NCc1ccc(OC(F)(F)F)cc1)C1CCNCC1 the screen gave PreQ1: inactive; TPP: inactive; SAM-II: inactive.
With COc1ccccc1-c1cc2nc(C)cc(NC(C)C)n2n1 the screen gave PreQ1: inactive; TPP: inactive.
With Cc1ccc(OCC(O)CN2CCN(c3ccc(C)cc3)CC2)cc1 (configuration not stated) the screen gave PreQ1: inactive; TPP: inactive; SAM-II: inactive.
With COc1c(C=O)c2c(c(OC)c1OC)-c1ccc(OC)c(=O)cc1[C@@H](NC(C)=O)CC2 the screen gave PreQ1: inactive; TPP: inactive; SAM-II: inactive.
With CN1C=C/C(=C/[N+](=O)[O-])N(C)C1=O the screen gave PreQ1: inactive; TPP: inactive; SAM-II: inactive.
With Cc1noc(C)c1CCC(=O)N1C[C@H](c2ccccc2)[C@@H](N)C1 the screen gave PreQ1: inactive; TPP: inactive; SAM-II: inactive.
With C=CCNc1nc(-c2ccccc2)nc(-n2ccnc2)n1 the screen gave PreQ1: inactive; TPP: inactive; SAM-II: inactive.
With CCc1cc(Nc2cccc(F)c2)n2ncnc2n1 the screen gave PreQ1: inactive; TPP: inactive; SAM-II: inactive.
With Clc1ccc(-c2ccc(CNCCCn3ccnc3)o2)cc1 the screen gave PreQ1: inactive; TPP: inactive.
With CCCc1nc2c3ccccc3nc(NCc3ccccc3)n2n1 the screen gave PreQ1: inactive; TPP: inactive.
With COC(=O)c1cc(CN2CCC(C(O)Cc3ccccc3)CC2)cs1 (configuration not stated) the screen gave PreQ1: inactive; TPP: inactive; SAM-II: inactive.
With Cc1cccc(Nc2cc(C)nc3c4c(C)cc(C)nc4nn23)c1 the screen gave PreQ1: inactive; TPP: inactive.
With CC1Cc2cc(-n3ccnc3-c3cc4n(n3)CCNC4)ccc2O1 (configuration not stated) the screen gave PreQ1: inactive; TPP: inactive; SAM-II: inactive.
With Nc1ncc(CN2C[C@H](NC(=O)CCC(F)(F)F)[C@@H](C3CC3)C2)cn1 the screen gave PreQ1: inactive; TPP: inactive; SAM-II: inactive.
With O=C(O)C1(Oc2ccccc2F)CCN(Cc2ccc(CO)o2)CC1 the screen gave PreQ1: inactive; TPP: inactive; SAM-II: inactive.
With COc1ccc(C2C(C#N)=C(N)Oc3cc4c(cc32)OCO4)cc1OC (configuration not stated) the screen gave PreQ1: inactive; TPP: inactive; SAM-II: inactive.
With NCCc1cn(Cc2ccc(C(F)(F)F)cc2)nn1 the screen gave PreQ1: inactive; TPP: inactive; SAM-II: inactive.
With Cc1ccc(Nc2ncnc3c2nc2n3CCCC2)cc1C the screen gave PreQ1: inactive; TPP: inactive.
With CCN(CC)CCNc1nc2c(c(=O)n(C)c(=O)n2C)n1C the screen gave PreQ1: inactive; TPP: inactive; SAM-II: inactive.
With Cc1cc(OCCCS(C)(=O)=O)cc(C)c1-c1cccc(COc2ccc3c(c2)OC[C@H]3CC(=O)O)c1 the screen gave PreQ1: inactive; TPP: inactive; SAM-II: inactive.
With O=C(Nc1nc2ccccc2s1)Nc1ccc([N+](=O)[O-])cc1Cl the screen gave PreQ1: inactive; TPP: inactive; SAM-II: inactive.
With Cn1c(NCCCCO)nc2c1c(=O)n(Cc1ccc(Cl)cc1)c(=O)n2C the screen gave PreQ1: inactive; TPP: inactive; SAM-II: inactive.
With Cc1ccc2nc(CNC3CC(=O)N(c4ccccc4)C3)cn2c1 (configuration not stated) the screen gave PreQ1: inactive; TPP: inactive; SAM-II: inactive.
With Cn1c(CO)nnc1C1CCCN(c2ncncc2C(=O)O)C1 (configuration not stated) the screen gave PreQ1: inactive; TPP: inactive; SAM-II: inactive.
With CC1CCN(CC(O)CN2c3ccccc3Sc3ccccc32)CC1 (configuration not stated) the screen gave PreQ1: inactive; TPP: inactive; SAM-II: inactive.
With CSC(=O)NC12CC3CC(C1)CC(C(=O)N[C@@H]1C[C@@H](CO)N(C)C1)(C3)C2 the screen gave PreQ1: inactive; TPP: inactive; SAM-II: inactive.
With N#Cc1nc(-c2ccc(S(=O)(=O)N3CCCCCC3)cc2)oc1NCC1CCCO1 (configuration not stated) the screen gave PreQ1: inactive; TPP: inactive.
With Nc1nc(CNC(=O)c2cn3ccsc3n2)n[nH]1 the screen gave PreQ1: inactive; TPP: inactive; SAM-II: inactive.
With COc1ccc(CCNc2c(-c3ccc(C(C)C)cc3)c(=O)c2=O)cc1OC the screen gave PreQ1: inactive; TPP: inactive.
With CCC(CO)N(Cc1ccccn1)C(=O)CC(=O)Nc1ccc(C)cc1 (configuration not stated) the screen gave PreQ1: inactive; TPP: inactive; SAM-II: inactive.
With Cc1ccc(-c2c(C(F)(F)F)nn3c(N4CCN(CCO)CC4)cc(C)nc23)cc1 the screen gave PreQ1: inactive; TPP: inactive.
With COc1ccc(C(=O)c2c(N)c(C(=O)Nc3cccc(F)c3)c3ccccn23)cc1 the screen gave PreQ1: inactive; TPP: inactive.

Repeated from the top, 3 entries:

| structure | PreQ1 | TPP | SAM-II |
|---|---|---|---|
| `COc1cc(C(=O)OC(C)CN2CCOCC2)cc(OC)c1OC` (configuration not stated) | inactive | inactive | inactive |
| `COc1cc(OC)c(C2C(C#N)=C(N)Oc3[nH]nc(C(C)(C)C)c32)cc1OC` (configuration not stated) | inactive | inactive | inactive |
| `CCS(=O)(=O)N1CCN(c2nccc(N3CCC(O)C3)n2)CC1` (configuration not stated) | inactive | inactive | inactive |